The list shows a part of the results.
How the values were obtained:
Experiment in all cases: log2 fold change, soluble protein after heating vs DMSO (PISA); higher = thermal stabilisation; K562 lysate, 10 uM; active = over 0.2 and 3.5 SD of the protein, either way, in both replicates (recomputed)
[1] = compound: C#Cc1cccc(Nc2ncnc3cc(OCCOC)c(OCCOC)cc23)c1 [erlotinib]
How it was run: (§1)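 Thermal stability, expressed as log-two fold change relative to solvent controls, is given from duplicates. Crude K562 extract in PBS pH 7.4 with 1 mM MgCl2, at 1 mg/mL protein, was treated with 10 μM compound for 30 min and heated in aliquots for 3 min across 48°C-58°C. After pooling, adjustment to 0.5% NP-40 at 4°C and centrifugation at 21,000xg for 90 min, supernatant protein was measured by TMTpro 16plex LC-MS/MS with channel sums equalised.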

Protein sequences, listed by entry. Tags and fused reporters are not part of them. Lines headed by an entry give the natural chain unless they say otherwise; changes in a name come on top.
UniProt Q9NW68: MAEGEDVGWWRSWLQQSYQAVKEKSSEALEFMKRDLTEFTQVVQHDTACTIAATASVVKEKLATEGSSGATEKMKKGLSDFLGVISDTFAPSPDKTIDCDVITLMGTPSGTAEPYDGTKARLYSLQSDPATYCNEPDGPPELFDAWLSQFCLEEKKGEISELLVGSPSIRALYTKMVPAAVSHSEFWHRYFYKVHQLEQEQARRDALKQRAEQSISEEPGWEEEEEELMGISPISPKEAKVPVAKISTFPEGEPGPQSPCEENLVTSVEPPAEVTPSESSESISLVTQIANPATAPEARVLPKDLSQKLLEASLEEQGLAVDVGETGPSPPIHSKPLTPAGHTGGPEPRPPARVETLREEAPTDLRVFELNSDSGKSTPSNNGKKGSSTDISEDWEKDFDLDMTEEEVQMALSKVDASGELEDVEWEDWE
UniProt Q9P287, whole entry, looked up: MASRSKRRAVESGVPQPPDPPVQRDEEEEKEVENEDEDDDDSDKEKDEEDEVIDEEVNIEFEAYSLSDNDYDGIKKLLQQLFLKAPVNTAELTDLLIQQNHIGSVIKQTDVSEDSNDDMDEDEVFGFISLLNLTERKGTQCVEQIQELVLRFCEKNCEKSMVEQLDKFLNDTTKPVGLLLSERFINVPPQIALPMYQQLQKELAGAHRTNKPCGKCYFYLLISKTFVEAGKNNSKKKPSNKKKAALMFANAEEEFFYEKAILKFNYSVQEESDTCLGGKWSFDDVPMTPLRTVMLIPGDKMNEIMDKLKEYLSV
UniProt Q8N9N5: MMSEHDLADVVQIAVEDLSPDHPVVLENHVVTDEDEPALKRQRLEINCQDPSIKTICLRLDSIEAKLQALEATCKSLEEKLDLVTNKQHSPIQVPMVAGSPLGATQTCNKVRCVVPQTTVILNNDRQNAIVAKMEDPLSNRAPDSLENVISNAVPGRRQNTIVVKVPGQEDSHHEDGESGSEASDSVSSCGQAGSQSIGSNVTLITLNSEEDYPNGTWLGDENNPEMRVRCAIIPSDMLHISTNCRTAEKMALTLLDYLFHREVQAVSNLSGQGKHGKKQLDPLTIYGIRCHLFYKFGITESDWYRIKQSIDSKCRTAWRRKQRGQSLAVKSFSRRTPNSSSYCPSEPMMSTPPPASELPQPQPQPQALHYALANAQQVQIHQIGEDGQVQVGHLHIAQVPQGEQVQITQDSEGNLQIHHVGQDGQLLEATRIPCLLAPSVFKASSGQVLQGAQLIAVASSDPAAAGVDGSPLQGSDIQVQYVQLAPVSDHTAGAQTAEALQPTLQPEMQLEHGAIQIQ
UniProt Q6PGQ7, whole entry, looked up: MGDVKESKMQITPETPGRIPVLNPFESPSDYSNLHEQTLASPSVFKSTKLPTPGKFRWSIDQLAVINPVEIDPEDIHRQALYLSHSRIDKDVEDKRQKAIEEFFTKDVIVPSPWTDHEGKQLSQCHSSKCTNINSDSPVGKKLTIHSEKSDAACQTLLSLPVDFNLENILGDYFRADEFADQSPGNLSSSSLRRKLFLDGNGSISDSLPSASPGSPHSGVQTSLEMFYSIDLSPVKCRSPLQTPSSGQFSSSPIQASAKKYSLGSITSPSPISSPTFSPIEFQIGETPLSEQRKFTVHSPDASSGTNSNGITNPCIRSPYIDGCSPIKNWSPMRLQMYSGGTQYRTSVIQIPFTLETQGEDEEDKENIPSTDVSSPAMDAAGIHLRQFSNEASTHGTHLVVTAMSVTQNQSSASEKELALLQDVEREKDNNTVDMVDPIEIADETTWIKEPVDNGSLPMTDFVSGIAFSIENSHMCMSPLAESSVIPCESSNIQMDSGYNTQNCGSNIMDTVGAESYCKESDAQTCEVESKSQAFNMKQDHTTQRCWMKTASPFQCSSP
UniProt Q4VC05, whole entry, looked up: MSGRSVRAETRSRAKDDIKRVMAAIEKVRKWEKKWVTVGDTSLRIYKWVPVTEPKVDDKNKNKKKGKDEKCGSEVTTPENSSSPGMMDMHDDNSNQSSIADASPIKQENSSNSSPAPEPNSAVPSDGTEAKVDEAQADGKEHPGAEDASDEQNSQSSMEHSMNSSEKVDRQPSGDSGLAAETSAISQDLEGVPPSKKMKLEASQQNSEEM
UniProt Q14457, whole entry, looked up: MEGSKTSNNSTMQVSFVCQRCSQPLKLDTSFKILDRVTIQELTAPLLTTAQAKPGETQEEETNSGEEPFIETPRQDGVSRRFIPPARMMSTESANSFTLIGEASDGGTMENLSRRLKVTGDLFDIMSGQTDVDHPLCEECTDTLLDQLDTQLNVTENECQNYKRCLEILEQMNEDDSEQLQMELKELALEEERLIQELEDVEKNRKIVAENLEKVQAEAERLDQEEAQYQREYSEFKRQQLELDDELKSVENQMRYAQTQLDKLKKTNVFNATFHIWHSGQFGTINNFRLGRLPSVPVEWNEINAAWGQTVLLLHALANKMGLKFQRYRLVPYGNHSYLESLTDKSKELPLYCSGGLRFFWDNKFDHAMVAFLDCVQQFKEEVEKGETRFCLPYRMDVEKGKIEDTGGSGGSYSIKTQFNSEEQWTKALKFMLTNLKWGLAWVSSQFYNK
UniProt P30043: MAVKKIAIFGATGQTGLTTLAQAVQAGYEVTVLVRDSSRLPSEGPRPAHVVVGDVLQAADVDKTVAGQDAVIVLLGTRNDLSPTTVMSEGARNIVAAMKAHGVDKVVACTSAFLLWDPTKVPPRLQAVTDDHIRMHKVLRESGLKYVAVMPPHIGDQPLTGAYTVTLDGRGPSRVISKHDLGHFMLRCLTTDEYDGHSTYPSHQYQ
UniProt Q92934: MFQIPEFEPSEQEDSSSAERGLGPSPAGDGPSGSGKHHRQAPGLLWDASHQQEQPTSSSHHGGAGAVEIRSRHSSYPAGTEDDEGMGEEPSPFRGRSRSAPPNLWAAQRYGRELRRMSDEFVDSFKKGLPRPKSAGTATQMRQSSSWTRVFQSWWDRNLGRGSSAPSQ
UniProt Q9H6U6: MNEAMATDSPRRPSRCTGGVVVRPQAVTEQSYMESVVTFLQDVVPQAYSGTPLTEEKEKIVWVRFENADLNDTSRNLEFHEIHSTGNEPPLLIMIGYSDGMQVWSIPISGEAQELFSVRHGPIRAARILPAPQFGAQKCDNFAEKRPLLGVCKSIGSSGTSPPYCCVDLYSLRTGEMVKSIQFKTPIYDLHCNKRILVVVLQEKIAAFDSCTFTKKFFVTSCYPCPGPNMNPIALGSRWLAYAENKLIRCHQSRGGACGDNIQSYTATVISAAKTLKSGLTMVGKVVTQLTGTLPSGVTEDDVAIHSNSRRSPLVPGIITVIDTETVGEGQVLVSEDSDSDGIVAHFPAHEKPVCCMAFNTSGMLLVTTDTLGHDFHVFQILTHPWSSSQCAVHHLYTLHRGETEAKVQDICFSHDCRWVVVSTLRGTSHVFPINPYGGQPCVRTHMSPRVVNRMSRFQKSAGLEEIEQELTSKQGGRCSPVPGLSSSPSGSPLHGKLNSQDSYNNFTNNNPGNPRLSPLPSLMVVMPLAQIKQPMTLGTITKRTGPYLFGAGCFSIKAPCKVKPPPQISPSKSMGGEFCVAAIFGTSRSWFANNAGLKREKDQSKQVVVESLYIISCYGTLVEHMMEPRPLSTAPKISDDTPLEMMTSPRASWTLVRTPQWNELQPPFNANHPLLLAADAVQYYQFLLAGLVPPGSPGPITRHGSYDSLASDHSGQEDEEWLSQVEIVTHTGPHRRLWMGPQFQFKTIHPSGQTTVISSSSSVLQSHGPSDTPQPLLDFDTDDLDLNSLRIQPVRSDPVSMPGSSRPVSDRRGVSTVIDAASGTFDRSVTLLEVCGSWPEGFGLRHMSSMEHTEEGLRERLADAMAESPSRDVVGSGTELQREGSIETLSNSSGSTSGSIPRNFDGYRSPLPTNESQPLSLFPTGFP
UniProt Q9NRL2: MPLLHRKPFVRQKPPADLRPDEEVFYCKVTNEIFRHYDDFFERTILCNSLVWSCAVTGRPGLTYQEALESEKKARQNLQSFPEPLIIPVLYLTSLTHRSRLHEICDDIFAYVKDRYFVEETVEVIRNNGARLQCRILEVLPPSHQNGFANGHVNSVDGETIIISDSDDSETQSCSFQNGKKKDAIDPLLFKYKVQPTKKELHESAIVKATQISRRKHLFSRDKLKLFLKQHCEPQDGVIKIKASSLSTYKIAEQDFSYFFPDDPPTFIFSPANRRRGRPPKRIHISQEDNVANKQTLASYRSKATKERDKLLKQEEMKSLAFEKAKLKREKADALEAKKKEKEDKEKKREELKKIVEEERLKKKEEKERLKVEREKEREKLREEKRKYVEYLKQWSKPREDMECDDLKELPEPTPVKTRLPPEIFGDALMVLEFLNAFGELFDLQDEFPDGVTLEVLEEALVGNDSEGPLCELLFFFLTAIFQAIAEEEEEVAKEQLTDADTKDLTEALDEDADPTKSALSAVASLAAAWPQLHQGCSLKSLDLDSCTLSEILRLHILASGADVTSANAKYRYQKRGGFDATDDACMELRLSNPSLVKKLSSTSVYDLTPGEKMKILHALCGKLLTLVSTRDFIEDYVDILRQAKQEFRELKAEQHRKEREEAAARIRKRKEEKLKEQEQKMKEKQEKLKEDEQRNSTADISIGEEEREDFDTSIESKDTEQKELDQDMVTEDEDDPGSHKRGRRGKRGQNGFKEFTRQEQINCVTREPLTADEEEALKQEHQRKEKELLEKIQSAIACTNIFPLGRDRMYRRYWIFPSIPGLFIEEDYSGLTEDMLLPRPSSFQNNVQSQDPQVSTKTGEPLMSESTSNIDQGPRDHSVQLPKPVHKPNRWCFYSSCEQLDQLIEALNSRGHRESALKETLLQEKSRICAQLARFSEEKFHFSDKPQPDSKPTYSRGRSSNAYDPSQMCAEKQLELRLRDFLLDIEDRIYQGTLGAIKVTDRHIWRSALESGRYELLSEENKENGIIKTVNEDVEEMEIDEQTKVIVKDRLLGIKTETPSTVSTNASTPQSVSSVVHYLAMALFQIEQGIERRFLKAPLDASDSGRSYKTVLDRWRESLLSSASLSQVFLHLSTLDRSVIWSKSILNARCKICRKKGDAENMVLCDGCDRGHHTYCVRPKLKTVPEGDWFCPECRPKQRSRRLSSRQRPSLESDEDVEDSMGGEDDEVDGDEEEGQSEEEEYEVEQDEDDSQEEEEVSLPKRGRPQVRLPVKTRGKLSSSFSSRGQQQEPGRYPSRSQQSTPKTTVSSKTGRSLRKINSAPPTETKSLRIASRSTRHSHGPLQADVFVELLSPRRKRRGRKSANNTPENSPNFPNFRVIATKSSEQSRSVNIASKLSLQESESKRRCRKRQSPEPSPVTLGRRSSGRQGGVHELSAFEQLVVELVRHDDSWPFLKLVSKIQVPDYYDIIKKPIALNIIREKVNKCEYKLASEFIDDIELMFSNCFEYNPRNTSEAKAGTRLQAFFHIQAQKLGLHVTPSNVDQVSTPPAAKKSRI
UniProt O95999: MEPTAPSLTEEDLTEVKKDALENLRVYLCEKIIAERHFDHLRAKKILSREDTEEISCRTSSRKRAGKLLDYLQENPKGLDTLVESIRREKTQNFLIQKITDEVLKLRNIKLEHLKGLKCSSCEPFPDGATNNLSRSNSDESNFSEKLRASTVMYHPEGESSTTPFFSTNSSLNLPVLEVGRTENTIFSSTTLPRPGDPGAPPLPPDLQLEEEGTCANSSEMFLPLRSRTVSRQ
UniProt Q13490, whole entry, looked up: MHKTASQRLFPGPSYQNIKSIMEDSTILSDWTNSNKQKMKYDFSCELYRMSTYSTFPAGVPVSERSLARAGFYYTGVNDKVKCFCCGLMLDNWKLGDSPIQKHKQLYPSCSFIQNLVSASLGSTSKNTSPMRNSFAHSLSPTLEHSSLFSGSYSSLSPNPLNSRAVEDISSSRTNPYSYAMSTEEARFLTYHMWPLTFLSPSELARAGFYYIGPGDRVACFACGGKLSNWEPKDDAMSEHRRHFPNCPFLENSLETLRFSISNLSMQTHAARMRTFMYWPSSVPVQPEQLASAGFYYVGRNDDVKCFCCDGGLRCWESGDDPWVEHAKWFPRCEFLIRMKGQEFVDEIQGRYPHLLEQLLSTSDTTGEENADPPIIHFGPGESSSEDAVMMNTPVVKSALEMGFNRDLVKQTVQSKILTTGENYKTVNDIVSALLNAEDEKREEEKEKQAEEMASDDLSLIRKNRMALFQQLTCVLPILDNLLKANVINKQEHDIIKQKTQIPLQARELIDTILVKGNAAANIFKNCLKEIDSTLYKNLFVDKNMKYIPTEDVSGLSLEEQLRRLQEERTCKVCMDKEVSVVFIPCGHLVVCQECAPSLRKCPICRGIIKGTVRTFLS
UniProt Q9UHQ4: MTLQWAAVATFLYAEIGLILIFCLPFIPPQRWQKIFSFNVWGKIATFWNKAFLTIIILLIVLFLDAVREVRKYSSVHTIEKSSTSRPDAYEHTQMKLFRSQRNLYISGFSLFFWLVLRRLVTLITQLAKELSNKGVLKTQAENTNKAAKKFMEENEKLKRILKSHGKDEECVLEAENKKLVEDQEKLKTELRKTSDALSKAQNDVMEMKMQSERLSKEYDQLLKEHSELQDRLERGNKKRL

[2] = compound: C/C(=N\NC(=O)C1=CC(=CC=C1)S(=O)(=O)N2CCOCC2)/C3=C(C=CC(=C3)Cl)O
How it was run: as §1

[3] = compound: C1=CC(=CC=C1C2=NC3=C(N2)C=C(C=C3)C(=O)N)OC4=CC=C(C=C4)Cl
How it was run: as §1

[4] = compound: C1=CC2=C(C=CC(=C2)/C=C\3/C(=O)NC(=NCC4=CC=CS4)S3)N=C1
How it was run: as §1

[5] = compound: C1=CC2=NC=CN=C2C=C1/C=C/3\C(=O)NC(=O)S3
How it was run: as §1

[6] = compound: C1=CC=C(C=C1)C2=NC(=C(N2)C3=CC=NC=C3)C4=CC(=C(C=C4)Cl)O
How it was run: as §1

[7] = compound: C1=CC=C2C(=C1)C3=NNC4=CC=CC(=C43)C2=O
How it was run: as §1

[8] = compound: C1CCN(C1)C(=O)NC2=CC=CC(=C2)NC3=NC=C(C(=N3)NCCC4=CN=CN4)Br
How it was run: as §1

[9] = compound: C1CN(CCC1(CC2=CC=C(C=C2)Cl)N)C3=NC=NC4=C3C=CN4
How it was run: as §1

[10] = compound: C1COCCN1CCN2C3=CC=CC=C3N=C2NC(=O)C4=CC(=CC=C4)[N+](=O)[O-] [IRAK-1-4 Inhibitor I]
How it was run: as §1

[11] = compound: C=CC(=O)N1CCC[C@@H](n2nc(-c3ccc(Oc4ccccc4)cc3)c3c(N)ncnc32)C1 [ibrutinib]
How it was run: as §1

[12] = compound: CC(=O)c1cnc2ccc(-c3cc(Cl)c(O)c(Cl)c3)nc2c1N[C@H]1CC[C@H](CN(C)C)CC1
How it was run: as §1

[13] = compound: CC(C)(C)Cn1c(N)nc2ccc(-c3[nH]c(C(C)(C)C)nc3-c3ccc(F)cc3)nc21 [ralimetinib]
How it was run: as §1

[14] = compound: CC(C)(O)CC(=O)NCCn1ccc2ncnc(Nc3ccc(Oc4cccc(C(F)(F)F)c4)c(Cl)c3)c21
How it was run: as §1

[15] = compound: CC(C)C1=C2N=C(C=C(N2N=C1)NCC3=CC=CC=C3)NCCCCCCN
How it was run: as §1

[16] = compound: CC1=C(C(CC(=O)N1)C2=CC=C(C=C2)C(F)(F)F)C(=O)NC3=C(C=C4C(=C3)C=NN4)F
How it was run: as §1

[17] = compound: CC1=C(C2=C(C=C1)C(=O)C3=CC=CC=C3N2CCCN)C
How it was run: as §1

[18] = compound: CC1=C(C=C(C=C1)NC(=O)C2=CC(=CC=C2)C(C)(C)C#N)NC3=CC4=C(C=C3)N=CN(C4=O)C
How it was run: as §1

[19] = compound: CC1=C(C=C(C=C1)NC(=O)C2=CC(=CC=C2)N(C)C)NC(=O)C3=CC=C(C=C3)O
How it was run: as §1

[20] = compound: CC1=CC=C(C=C1)SC2=C3C=C(SC3=CN=C2)C(=O)N
How it was run: as §1

Measured: log2 fold change

BSDC1 (UniProt Q9NW68)
inactive: [1] -0.002 | [2] 0.01 | [3] -0.039 | [4] 0.046 | [5] -0.025 | [6] -0.024 | [7] 0.036 | [8] -0.029 | [9] 0 | [10] 0.059 | [11] 0.048 | [12] 0.008 | [13] -0.004 | [14] -0.023 | [15] 0.062 | [16] 0.038 | [17] 0.01 | [18] 0.022 | [19] -0.047 | [20] 0.011

BCCIP isoform 2 (UniProt Q9P287)
inactive: [1] -0.012 | [2] -0.007 | [3] -0.016 | [4] 0.011 | [5] 0.014 | [6] 0.017 | [7] 0.036 | [8] 0.072 | [9] -0.028 | [10] -0.003 | [11] -0.02 | [12] 0.009 | [13] -0.013 | [14] 0.021 | [15] -0.001 | [16] 0.022 | [17] 0.031 | [18] -0.02 | [19] 0.008 | [20] 0.007

B4GALT3 (UniProt O60512)
inactive: [1] -0.041 | [2] -0.096 | [3] -0.081 | [4] 0.043 | [5] 0.07 | [6] -0.066 | [7] -0.005 | [8] 0.098 | [9] 0.107 | [10] -0.041 | [11] 0.001 | [12] -0.169 | [13] 0.043 | [14] -0.062 | [15] 0.019 | [16] 0.007 | [17] 0.028 | [18] -0.09 | [19] 0.043 | [20] 0.005

BANP (UniProt Q8N9N5)
inactive: [1] 0.042 | [2] 0.088 | [3] 0.047 | [4] 0.064 | [5] -0.005 | [6] -0.015 | [7] 0.113 | [8] -0.01 | [9] -0.01 | [10] 0.065 | [11] -0.097 | [12] 0.057 | [13] 0.035 | [14] -0.058 | [15] -0.001 | [16] 0.008 | [17] -0.009 | [18] -0.018 | [19] 0.037 | [20] 0.072

BORA (UniProt Q6PGQ7)
inactive: [1] 0.013 | [2] -0.121 | [3] -0.022 | [4] 0.211 | [5] -0.035 | [6] -0.026 | [7] 0.05 | [8] 0.025 | [9] 0.103 | [10] -0.008 | [11] 0.108 | [13] 0.002 | [14] -0.033 | [15] 0.053 | [16] 0.006 | [17] 0.051 | [18] 0.078 | [19] -0.02

BCL7A isoform 2 (UniProt Q4VC05)
inactive: [1] -0.018 | [2] 0.002 | [3] 0.021 | [4] -0.012 | [5] 0.045 | [6] 0.014 | [7] 0.003 | [8] 0.095 | [9] 0.013 | [10] -0.05 | [11] 0.036 | [12] -0.03 | [13] -0.01 | [14] 0.045 | [15] -0.076 | [16] 0.005 | [17] 0.015 | [18] -0.048 | [19] 0.016 | [20] -0.041

BECN1 (UniProt Q14457)
inactive: [1] -0.013 | [2] -0.016 | [3] -0.077 | [4] 0.03 | [5] 0.047 | [6] -0.064 | [7] 0.045 | [8] -0.01 | [9] -0.023 | [10] 0.024 | [11] -0.014 | [12] 0.036 | [13] 0.039 | [14] 0 | [15] -0.052 | [16] -0.005 | [17] -0.002 | [18] -0.017 | [19] -0.01 | [20] 0

BLVRB (UniProt P30043)
inactive: [1] 0.019 | [2] 0.184 | [3] -0.006 | [4] 0.004 | [5] 0.036 | [6] -0.03 | [7] 0.012 | [8] -0.021 | [9] 0.038 | [10] 0 | [11] -0.046 | [12] 0.02 | [13] -0.033 | [14] -0.041 | [15] 0.04 | [16] -0.009 | [17] 0.02 | [18] 0.034 | [19] 0.037 | [20] 0.004

BTF3 (UniProt P20290)
inactive: [1] -0.054 | [2] -0.015 | [3] 0.013 | [4] -0.006 | [5] -0.015 | [6] -0.014 | [7] 0.04 | [8] 0.004 | [9] -0.011 | [10] -0.013 | [11] 0 | [12] 0.014 | [13] -0.002 | [14] -0.009 | [15] 0.003 | [16] -0.001 | [17] 0.039 | [18] -0.025 | [19] -0.015 | [20] -0.012

BAD (UniProt Q92934)
inactive: [1] 0.04 | [2] -0.084 | [3] -0.022 | [4] 0.089 | [5] -0.068 | [6] -0.044 | [7] 0.013 | [8] 0.03 | [9] -0.057 | [10] 0.049 | [11] 0.083 | [13] 0.023 | [14] -0.002 | [15] 0.057 | [17] 0.084 | [18] 0.019 | [19] 0.014

2 neighbouring records out of the list so far, quoted:
BLVRB (UniProt P30043)
inactive: [1] 0.019 | [2] 0.184 | [3] -0.006 | [4] 0.004 | [5] 0.036 | [6] -0.03 | [7] 0.012 | [8] -0.021 | [9] 0.038 | [10] 0 | [11] -0.046 | [12] 0.02 | [13] -0.033 | [14] -0.041 | [15] 0.04 | [16] -0.009 | [17] 0.02 | [18] 0.034 | [19] 0.037 | [20] 0.004

BTF3 (UniProt P20290)
inactive: [1] -0.054 | [2] -0.015 | [3] 0.013 | [4] -0.006 | [5] -0.015 | [6] -0.014 | [7] 0.04 | [8] 0.004 | [9] -0.011 | [10] -0.013 | [11] 0 | [12] 0.014 | [13] -0.002 | [14] -0.009 | [15] 0.003 | [16] -0.001 | [17] 0.039 | [18] -0.025 | [19] -0.015 | [20] -0.012

Further results follow:

BCAS3 isoform 8 (UniProt Q9H6U6)
inactive: [1] -0.04 | [2] 0.107 | [3] 0.054 | [4] -0.122 | [5] -0.012 | [6] 0.011 | [7] -0.058 | [8] -0.14 | [9] -0.14 | [10] 0.018 | [11] -0.002 | [12] 0.005 | [13] 0.049 | [14] 0.117 | [15] 0.061 | [17] -0.036 | [18] 0.07 | [19] -0.039 | [20] -0.012

BAZ1A (UniProt Q9NRL2)
inactive: [1] 0.048 | [2] 0.235 | [3] -0.172 | [4] -0.148 | [5] -0.057 | [6] 0.004 | [7] 0.004 | [8] 0 | [9] 0.16 | [10] 0.026 | [11] -0.042 | [13] 0.043 | [14] -0.167 | [15] 0.002 | [16] 0.156 | [17] -0.013 | [18] -0.004 | [19] 0.002

BCL10 (UniProt O95999)
inactive: [1] -0.031 | [2] -0.044 | [3] -0.032 | [4] 0.037 | [5] -0.017 | [6] 0.041 | [7] 0.019 | [8] 0.008 | [9] -0.029 | [10] -0.02 | [11] 0.01 | [12] -0.047 | [13] 0 | [14] 0.039 | [15] 0.019 | [16] 0.002 | [17] 0.033 | [18] 0.003 | [19] 0.013 | [20] -0.018

BIRC2 (UniProt Q13490)
inactive: [1] 0.034 | [2] 0.005 | [3] -0.022 | [4] -0.025 | [5] 0.022 | [6] -0.015 | [7] 0.061 | [8] 0.013 | [9] 0.011 | [10] 0.01 | [11] 0.019 | [12] 0.002 | [13] 0.008 | [14] -0.023 | [15] 0.002 | [16] -0.007 | [17] 0.021 | [18] -0.009 | [19] -0.026 | [20] -0.013

BCAP29 isoform 2 (UniProt Q9UHQ4)
inactive: [1] -0.035 | [2] 0.033 | [3] -0.058 | [4] -0.005 | [5] -0.015 | [6] -0.026 | [7] 0.089 | [8] -0.022 | [9] -0.024 | [10] -0.042 | [11] 0.078 | [12] -0.014 | [13] -0.012 | [14] 0.061 | [15] -0.018 | [16] 0.005 | [17] 0 | [18] -0.038 | [19] 0.006 | [20] -0.032

— the supplement of paper PMC10849652
